PubChem BioAssay AID686938 | Drosophila RNAi Screening Center – 2013

- Purpose: 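Looking for CRAC channel components and the factors controlling them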 (primary screen)
- Cell system: Drosophila S2R+ cells
- Knock-down reagent: long dsRNA against Drosophila genes, about 0.25 µg dsRNA per well, roughly 10,000 cells
- Time to read-out: 5 days of knock-down before the calcium assay
- Challenge: thapsigargin (SERCA pump blocker) to empty calcium stores; entry signal taken 4 min after adding it
- Read-out: 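Per-well fluo-4 fluorescence in two replicates, unnormalised, measured in resting cells and 4 min after store depletion by the SERCA blocker thapsigargin; ratio of the two present in few wells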
- Scale: calcium entry signal: higher = stronger calcium signal after store depletion; entry to resting ratio: higher = more calcium entry relative to resting level; resting calcium signal: higher = higher resting calcium signal
- Hit rule: 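Hit if the duplicate-averaged plate z-score for entry over resting signal is under −3; wells with weak total dye signal (Fmax z < −2) or more than 5 off-targets removed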
- Calls: active = strongly reduced calcium entry; inactive = no strong reduction
In all, the deposit lists about 23,000 reagents; below is an unselected part of those with a known target gene and a result. Of all reagents, 75 (0.33%) were called active. 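Raw plate signals without normalisation; calls rest on plate z-scores that were not deposited; ratio present for only 364 wells.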 A plus sign joins genes that one reagent is predicted to hit. Not stated in the record: the dose of the treatment.

no.	Target gene	PubChem SID	calcium entry signal, replicate 1 (fluorescence units)	calcium entry signal, replicate 2 (fluorescence units)	entry to resting ratio	resting calcium signal, replicate 1 (fluorescence units)	resting calcium signal, replicate 2 (fluorescence units)	activity call
1	Su(P)	SID104191083	5.65e7	8.74e7		2.56e7	2.92e7	inactive
2	CG5281	SID104195553	3.33e7	3.53e7		1.64e7	1.84e7	inactive
3	Trap1	SID104184811	4.01e7			2.03e7		inactive
4	CG40045	SID104201024	4.36e7	3.41e7		2.19e7	1.66e7	inactive
5	CG43098	SID104187843	4.54e7	3.55e7		2.13e7	1.66e7	inactive
6	CG8192	SID104186893	2.81e7	2.17e7		1.37e7	1.37e7	inactive
7	CG12581	SID104191998	3.91e7	4.27e7		1.73e7	3.10e7	inactive
8	CG12581	SID104191999	2.67e7	5.20e7		1.33e7	2.29e7	inactive
9	CG1663	SID104186405	3.75e7	2.14e7		1.88e7	1.15e7	inactive
10	CG1663	SID104201942	4.12e7	2.88e7		2.37e7	1.48e7	inactive
11	CG15296	SID104197775	3.66e7	5.70e7		1.79e7	2.61e7	inactive
12	CG3062	SID104198364	2.94e7	3.97e7		1.54e7	1.68e7	inactive
13	retinin	SID104189732	5.08e7	7.17e7		2.33e7	2.77e7	inactive
14	zetaCOP	SID104191204	2.12e7	2.88e7		1.75e7	2.01e7	inactive
15	ng3	SID104198596	5.93e7	5.74e7	2	2.94e7	2.56e7	inactive
16	OstDelta	SID104186772	3.49e7	3.46e7		1.62e7	1.71e7	inactive
17	CG14903	SID104194816	2.13e7	3.14e7		1.11e7	4.47e7	inactive
18	CG3091	SID104198066	4.18e7	4.19e7	2.2	1.93e7	2.05e7	inactive
19	CG9933	SID104183068	5.62e7	3.68e7		2.45e7	1.70e7	inactive
20	CG14323	SID104194594	3.93e7	5.75e7		1.90e7	6.45e7	inactive
21	asRNA:CR43476 + CG42534	SID104202603	2.94e7	3.17e7		1.78e7	1.54e7	inactive
22	Zip71B	SID104189478	4.19e7	5.39e7		1.85e7	2.03e7	inactive
23	Dhfr	SID104196438	2.98e7	5.75e7		1.62e7	7.41e7	inactive
24	CG3342	SID104198096	3.14e7	3.57e7		1.51e7	1.52e7	inactive
25	CG34316 + asRNA:CR43471	SID104192872	4.03e7	4.23e7		2.26e7	1.81e7	inactive
26	Or49b	SID104187286	3.12e7	3.87e7		1.66e7	1.68e7	inactive
27	Tsp42Ei	SID104185981	3.62e7	4.28e7		1.73e7	1.94e7	inactive
28	Gr2a	SID104198395	5.96e7	5.61e7	2.3	2.54e7	2.28e7	inactive
29	upd1	SID104200150	4.26e7	3.58e7		2.17e7	1.63e7	inactive
30	Pop4	SID104190747	3.50e7	4.22e7		1.64e7	1.75e7	inactive
31	CG42304 + Snup	SID104188068	4.57e7	3.45e7		2.35e7	1.77e7	inactive
32	CG42304 + Snup	SID104188069	4.08e7	4.72e7		2.01e7	2.20e7	inactive
33	CG42304 + Snup	SID104202141	4.65e7	3.61e7		2.87e7	1.77e7	inactive
34	ninaG	SID104195894	2.43e7	3.07e7		1.30e7	1.59e7	inactive
35	CG3534	SID104195286	2.99e7	4.48e7		1.42e7	5.94e7	inactive
36	Fip1	SID104191939	3.37e7	3.75e7		1.61e7	2.35e7	inactive
37	alpha-PheRS	SID104198016	2.09e7	2.00e7		9.42e6	1.01e7	inactive

9 neighbouring reagents already listed:
no.	Target gene	PubChem SID	calcium entry signal, replicate 1 (fluorescence units)	calcium entry signal, replicate 2 (fluorescence units)	entry to resting ratio	resting calcium signal, replicate 1 (fluorescence units)	resting calcium signal, replicate 2 (fluorescence units)	activity call
3	Trap1	SID104184811	4.01e7			2.03e7		inactive
4	CG40045	SID104201024	4.36e7	3.41e7		2.19e7	1.66e7	inactive
5	CG43098	SID104187843	4.54e7	3.55e7		2.13e7	1.66e7	inactive
6	CG8192	SID104186893	2.81e7	2.17e7		1.37e7	1.37e7	inactive
7	CG12581	SID104191998	3.91e7	4.27e7		1.73e7	3.10e7	inactive
8	CG12581	SID104191999	2.67e7	5.20e7		1.33e7	2.29e7	inactive
9	CG1663	SID104186405	3.75e7	2.14e7		1.88e7	1.15e7	inactive
10	CG1663	SID104201942	4.12e7	2.88e7		2.37e7	1.48e7	inactive
11	CG15296	SID104197775	3.66e7	5.70e7		1.79e7	2.61e7	inactive

Further records:
no.	Target gene	PubChem SID	calcium entry signal, replicate 1 (fluorescence units)	calcium entry signal, replicate 2 (fluorescence units)	entry to resting ratio	resting calcium signal, replicate 1 (fluorescence units)	resting calcium signal, replicate 2 (fluorescence units)	activity call
38	TTLL4B	SID104180428	4.06e7			2.31e7		inactive
39	osa	SID104196814	4.66e7	3.60e7		2.39e7	1.87e7	inactive
40	Hnf4	SID104180824	4.08e7	4.90e7		2.18e7	2.23e7	inactive
41	Hnf4	SID104183136	4.53e7	2.75e7		2.52e7	1.58e7	inactive
42	dsh	SID104199595	3.11e7	5.78e7		1.56e7	2.65e7	inactive
43	CG5348	SID104186725	3.96e7	5.01e7		1.78e7	2.42e7	inactive
44	CG30472	SID104201771	3.71e7	3.80e7		1.78e7	1.89e7	inactive
45	CG8539	SID104190780	4.50e7	3.45e7		3.03e7	1.53e7	inactive
46	CG8539	SID104201456	3.76e7	3.61e7		2.15e7	1.74e7	inactive
47	CG30414	SID104184164	3.69e7	4.83e7		1.97e7	2.05e7	inactive
48	CG8925	SID104196247	3.74e7	6.97e7		1.80e7	7.61e7	inactive
49	CG8925	SID104196248	3.74e7	6.83e7		1.87e7	7.63e7	inactive
50	CG8925	SID104196249	3.45e7	6.19e7		1.87e7	7.87e7	inactive
51	mRpL20	SID104189620	3.74e7	4.81e7		1.85e7	1.91e7	inactive
52	Mitofilin	SID104196534	3.24e7	2.95e7		1.60e7	1.26e7	inactive
53	Ndf	SID104182567	4.40e7			2.23e7		inactive
54	CG10631	SID104181873	4.41e7			2.13e7		inactive
55	CG12253	SID104181945	4.46e7			1.98e7		inactive
56	CG15011	SID104188256	6.45e7	3.66e7		4.12e7	1.58e7	inactive
57	Gad1	SID104188453	3.95e7	3.06e7		2.71e7	1.36e7	inactive
58	Wnt10	SID104180782	1.72e7	4.13e7		1.47e7	1.65e7	inactive
59	Wnt10	SID104182589	4.14e7	4.28e7		1.92e7	1.84e7	inactive
60	nyo	SID104194821	3.52e7	3.87e7	2.2	1.58e7	1.66e7	inactive
61	nyo	SID104194822	2.99e7	3.44e7	2	1.53e7	1.43e7	inactive
62	Vha16-4	SID104187113	3.92e7	4.96e7		1.78e7	2.25e7	inactive
63	CG14561	SID104191514	2.91e7	5.98e7		1.38e7	2.46e7	inactive
64	Polr1E	SID104194298	3.95e7	4.10e7		5.99e7	1.97e7	inactive
65	Polr1E	SID104195150	5.03e7	3.78e7		2.48e7	1.67e7	inactive
66	AhcyL1	SID104188439	3.91e7	4.09e7		2.05e7	1.97e7	inactive
67	CG7488	SID104196042	2.38e7	2.68e7		1.21e7	4.09e7	inactive
68	CG43315	SID104186088	2.60e7	3.81e7		1.35e7	1.64e7	inactive
69	Vps50	SID104186702	3.36e7	2.49e7		1.54e7	1.29e7	inactive
70	l(3)72Dr	SID104190270	4.19e7	7.31e7		2.16e7	2.68e7	inactive
71	CG5565	SID104180482	4.16e7	5.15e7		1.91e7	2.26e7	inactive
72	2mit	SID104193986	2.42e7	2.96e7		1.17e7	4.29e7	inactive
73	2mit	SID104195016	2.54e7	2.79e7		1.31e7	4.61e7	inactive
74	CaBP1	SID104181776	3.40e7			1.89e7		inactive
75	hog	SID104198849	3.18e7	3.88e7		1.63e7	1.63e7	inactive
